Source: PubChem BioAssay AID602346 (Broad Institute, 2012)
Among all 340,000 compounds or so, about 1,200 (0.35%) were called active. Inconclusive means that the source gave no clear call. Such entries were picked first, then a sample of the others. Rule as the data show it: active = inhibition above about 50% (passing the limit was not always enough); inconclusive = no clear call, values can overlap the other calls; inactive = below about 31%.

assay: blockers of Vif multimerization in cells – imaging, HEK293T, single point, primary screen (AID 602346); settings: Vif self-association by quenched fluorescence, 24 h, at 7.49 µM, hits give high values

| SMILES | inhibition |
| --- | --- |
| COc1ccc(C)cc1NC(=O)c1cc(S(=O)(=O)N2CCCCC2)ccc1N1CCOCC1 | inconclusive: 24.2% |
| CC(C)CN(C(=O)COC(=O)CSc1ccccc1)c1c(N)n(Cc2ccccc2)c(=O)[nH]c1=O | active: 50.3% |
| O=C(CNCc1ccccn1)Nc1ccc([N+](=O)[O-])cc1C(=O)Nc1ccccc1F | inconclusive: 40.2% |
| OCCNc1cc(-n2nc(-c3ccccc3)cc2-c2ccccc2)ncn1 | inactive: -1.94% |
| Cc1ccc(C)n1-c1ncn[nH]1 | inconclusive: 32.6% |
| Cc1ccccc1NC(=S)N(Cc1cccs1)C1CCCC1 | active: 51.3% |
| COc1cc(-c2nc3ccccn3c2NCC2CCCO2)ccc1O (stereo not given) | inconclusive: 49.5% |
| CC(OC(=O)c1cccs1)C(=O)NCCc1ccccc1 (stereo not given) | inactive: 0.082% |
| CCOC(=O)N1CCN(C(=O)c2cnc(Nc3ccccc3OC)c3ccccc23)CC1 | inconclusive: 19.5% |
| C[C@H](NC(=O)OC(C)(C)C)C(=O)NCC1CCC(C(=O)N[C@@H](Cc2ccccc2)C(=O)O)CC1 (stereo not given in full) | inconclusive: 38.1% |
| COc1cccc(C(C)(O)c2nc(-c3ccccc3OC)cs2)c1 (stereo not given) | active: 57% |
| Fc1ccc(-c2n[nH]c(=S)c3ccccc23)cc1 | active: 52.2% |
| OCCc1ccc(NCCc2cccs2)cc1 | inactive: -7.73% |
| Cc1c(Cl)cccc1NC(=S)NCCc1ccc(F)cc1 | inconclusive: 47.8% |
| O=C(NC1CCCCC1)[C@@H]1CC=C[C@@H]2CCN(C3CCCCC3)C(=O)[C@@H]21 | active: 52.6% |
| CC1CCCCN1CCNC(=O)c1ccc2c(c1)N(Cc1cccc(Cl)c1)C(=O)c1ccccc1S2(=O)=O (stereo not given) | inconclusive: 29.9% |
| COc1ccc(C2C(C#N)=C(N)N(Nc3ccccc3)C3=C2C(=O)CC(C)(C)C3)cc1C (stereo not given) | inconclusive: 38.3% |
| CCN1CCN(c2ccc(S(=O)(=O)N3CCCCC3)cc2NC(=O)Cc2c(F)cccc2Cl)CC1 | inactive: 2% |
| Cc1c(NC(=O)c2cc3ccccc3oc2=O)c(=O)n(-c2ccccc2)n1C | active: 89.8% |
| COc1ccc(C(=O)NCCc2nnc(SCc3nc4ccccc4c(=O)[nH]3)n2C)cc1 | inconclusive: 29.8% |
| O=C(COc1ccccc1O)Nc1ccccc1Cl | inactive: 19.2% |
| C=CC[C@H]1C(C(=O)OCC)=CC[C@@H](c2ccccc2)N1S(=O)(=O)c1ccc(C)cc1 | inconclusive: 28.3% |
| O=C(Nc1cccc(Cl)c1)c1ccc2sc([C@@H]3O[C@H](CO)[C@H](O)[C@H](O)[C@H]3O)nc2c1 | inactive: -10.6% |

| SMILES | inhibition |
| --- | --- |
| CCOC(=O)c1c(C)[nH]c(C(=O)COC(=O)/C=C/c2ccc(O)c(OC)c2)c1C | active: 50% |
| CCCC(=O)Nc1ccc(Cl)c(NC(=O)c2ccc(Br)o2)c1 | inconclusive: 30.3% |
| Cc1cc(C)cc(N(CC(=O)O)S(=O)(=O)c2c(C)noc2C)c1 | inactive: -17.7% |
| NNC(=O)c1cncc(Br)c1 | inconclusive: 44.5% |
| O=C(Nc1ccccc1F)C(=Cc1sc(N2CCOCC2)nc1-c1ccccc1)C(=O)Nc1ccccc1F | inconclusive: 39.6% |
| O=C(CCc1ccccc1)NNC(=O)c1ccc(Cl)cc1 | inconclusive: 22.8% |
| CCCCc1nnc(NC(=O)CC(=O)Nc2ccccc2C(=O)O)s1 | inconclusive: 33.2% |
| O=C1C2CCCCN2C(=O)N1CCCCN1CCN(c2cccc(Br)c2)CC1 (stereo not given) | inactive: -5.67% |
| NC(=O)C1CCN(C2=C(Cl)C(=O)c3ccccc3C2=O)CC1 | inconclusive: 39.5% |
| Nc1ncnc2c1ncn2[C@@H]1O[C@H](COP(=O)(O)O)[C@@H](O)[C@H]1O | active: 106% |
| CC1(C)C(=O)Nc2ccccc2N1C(=O)COC(=O)Cc1ccc(Cl)c(Cl)c1 | inconclusive: 33.7% |
| COc1ccc(C(=O)NCc2ccc(C)cc2)cc1S(=O)(=O)N1CCCC1 | inconclusive: 31.1% |
| Cc1ccc(NC(=O)C2C3C=CC(O3)C2C(=O)O)cc1C (stereo not given) | inactive: 1.29% |
| CCOC(=O)C1=c2/c(=C/c3ccncc3)c(N)c(C(=O)OC)n2C(=O)C(c2ccncc2)S1 (stereo not given) | inactive: 11% |
| NNC(=O)Cn1cnc2ccccc21 | inconclusive: 31.6% |
| CN(C)c1ccc(/C=C2\SC(=O)N(CCc3nnc(N)s3)C2=O)cc1 | active: 95.8% |
| CC(=O)NCC(=O)OCC(=O)c1ccc(Cl)cc1 | inactive: 7.99% |
| Cc1ccc(C)c(-c2ccc(=O)n(Cc3c(F)cccc3Cl)n2)c1 | inconclusive: 18.8% |
| Cc1nn(Cc2ccc(C(=O)NN)cc2)c(C)c1Cl | inactive: -1.57% |
| F[B-](F)(F)c1cc2ccccc2s1 | inactive: -3.5% |
| COC(=O)c1sc(N2C(=O)C(O)=C(C(=O)c3ccc(C)o3)C2c2ccc(OC)c(OC)c2)nc1C (stereo not given) | inconclusive: 33.9% |
| CCc1cccc2c(C(=O)C(F)(F)F)cn(CC(=O)N3CCOCC3)c12 | inactive: 0.924% |
| CN(C)C=Nc1c(Br)cc(Br)c2nonc12 | active: 69.6% |

| SMILES | inhibition |
| --- | --- |
| CCCN(CCC)c1nc2c(C)cccn2c(=O)c1/C=C1/SC(=S)N(Cc2ccco2)C1=O | active: 146% |
| Cc1ccc(NC(=O)CCN2CCN(CCO)CC2)cc1 | inconclusive: 48.4% |
| C[N+]1(C)CCC(=C(c2ccccc2)c2ccccc2)CC1 | inconclusive: 46% |
| Cc1ccsc1C(=O)NCC(C)(C)N1CCOCC1 | inconclusive: 30.8% |
| CCCc1ccc(OC(=O)c2cccs2)cc1 | inconclusive: 31.2% |
| COc1ccc(-c2cc(C3CC3)nc(SCC(=O)c3cccs3)c2C#N)cc1 | inactive: -5.02% |
| O=C(NNC(=O)c1ccccc1-n1cccc1)c1ccc(Cl)nc1 | inconclusive: 47% |
| CSc1ccc(/C=N/NC(=O)c2ccc3nc[nH]c3c2)cc1 | inactive: -1.34% |
| Cc1nn(C)c(C)c1CN(C)C(=O)c1cc2n(n1)C(C(F)(F)F)CC(c1cccs1)N2 (stereo not given) | inconclusive: 36.2% |
| Nc1c(N(CCC2=CCCCC2)C(=O)COc2ccc([N+](=O)[O-])cc2)c(=O)[nH]c(=O)n1Cc1ccccc1 | inactive: 7.53% |
| CCOc1cc(C(=O)NCC(C)CN(C)C)cc(OCC)c1OCC (stereo not given) | inconclusive: 39.7% |
| O=C(Nc1cnn(Cc2ccc(F)cc2)c1)c1cc(-c2cccs2)on1 | active: 57.4% |
| Cc1ccc(NS(=O)(=O)c2ccc(Cl)c(NC(=S)NC(=O)C3CCCCC3)c2)cc1Cl | inactive: -1.39% |
| Cc1cc(NC(=O)CSc2nc3ccccc3c(=O)n2CCCC(=O)NCc2ccco2)n[nH]1 | active: 51.4% |
| CCOc1ccc(S(=O)(=O)NC2=NCCCCC2)cc1 | inconclusive: 41.2% |
| COc1cc(C)nc(-n2nc(C)cc2OC)n1 | inconclusive: 38.1% |
| CCOc1ccc(NS(=O)(=O)c2cc(C(=O)NCCCN3CCCC3=O)ccc2C)cc1 | inconclusive: 37.4% |
| C=CCNc1oc(-c2ccc(OCC)cc2)nc1C#N | inactive: -8.53% |
| Nc1ccccc1SCC(=O)Nc1nccs1 | inconclusive: 30.4% |
| Cc1cc(=O)[nH]c(SCCc2ccccc2)n1 | inconclusive: 31.7% |
| COc1ccc(N2C(=O)C(CC(=O)Nc3ccccc3)N(Cc3ccccn3)C2=S)cc1 (stereo not given) | inactive: -1.15% |
| O=C(c1ccc2c(c1)OCO2)N(CC1CCCO1)C1(C(=O)NC2CCCC2)CCCCC1 (stereo not given) | active: 69.5% |
| Cc1ccc(C(=O)N2CCN(c3ccc(NC(=S)NC(=O)Cc4ccccc4)cc3)CC2)cc1 | inactive: -9.11% |

Rewritten field by field: 4 of the compounds above.
COc1ccc(C)cc1NC(=O)c1cc(S(=O)(=O)N2CCCCC2)ccc1N1CCOCC1
  inhibition: inconclusive: 24.2%
COc1cccc(C(C)(O)c2nc(-c3ccccc3OC)cs2)c1 (stereo not given)
  inhibition: active: 57%
C=CC[C@H]1C(C(=O)OCC)=CC[C@@H](c2ccccc2)N1S(=O)(=O)c1ccc(C)cc1
  inhibition: inconclusive: 28.3%
O=C(Nc1cccc(Cl)c1)c1ccc2sc([C@@H]3O[C@H](CO)[C@H](O)[C@H](O)[C@H]3O)nc2c1
  inhibition: inactive: -10.6%

Copied from the list:
inhibition with `CCOc1ccc(NS(=O)(=O)c2cc(C(=O)NCCCN3CCCC3=O)ccc2C)cc1` is entered as inconclusive: 37.4%
inhibition with `C[N+]1(C)CCC(=C(c2ccccc2)c2ccccc2)CC1` is entered as inconclusive: 46%
inhibition with `Nc1ccccc1SCC(=O)Nc1nccs1` is entered as inconclusive: 30.4%

Continued.

| SMILES | inhibition |
| --- | --- |
| N#CCC(=O)Nc1ccc(C(=O)OCC(=O)Nc2cc(-c3ccccc3)nn2-c2ccccc2)cc1 | inconclusive: 42.2% |
| COCCn1c(COc2ccccc2)nnc1SCC(N)=O | active: 60.3% |
| CC(C)(C)NC(=O)CN(Cc1ccc(F)cc1)C(=O)Cn1nnc(-c2ccc(F)cc2)n1 | active: 58.4% |
| Cc1ccc(OCCNC(=O)C2CC(=O)N(c3ccc(C)cc3)C2)cc1 (stereo not given) | inconclusive: 23.7% |
| CCCc1nnc(NC(=O)CC(=O)Nc2ccccc2C(=O)O)s1 | inconclusive: 35% |
| CC(C)(C)c1cn(-c2ccccc2)c(=S)[nH]1 | inconclusive: 36% |
| CCCCC(=O)OCC(=O)c1cc(C)n(-c2c(C)n(C)n(-c3ccccc3)c2=O)c1C | active: 50.3% |
| CCCCCn1c(C)c2c(OCC)cccc(=O)c2c1C | inconclusive: 30.3% |
| Cc1ccc2oc(=O)c(/C=C(\O)c3cccs3)nc2c1 | active: 88.6% |
| Cc1nn(CC(=O)N2CCN(c3ccccc3)CC2)c(=O)c2cccn12 | inconclusive: 31.6% |
| O=[N+]([O-])c1ccc(-c2cn3nc(-c4ccccc4)c(-c4ccccc4)nc3n2)cc1 | inactive: -0.308% |
| O=[N+]([O-])C1C(c2ccccc2)C12c1ccccc1-c1ccccc12 (stereo not given) | inconclusive: 28.7% |
| CC(C)=CC(=O)Nc1ccccc1Br | inconclusive: 31.1% |
| Cn1cc(/C=N/n2cnc3scc(-c4ccccc4)c3c2=O)c2ccccc21 | inconclusive: 37.7% |
| CC(=O)Nc1ccc(NC(=O)C(C)OC(=O)c2ccc(-n3cnnn3)cc2)cc1 (stereo not given) | inconclusive: 46.6% |
| CC(C)c1ccc(C2(C)NC(=O)N(CC(=O)NC3CCCC(C)C3C)C2=O)cc1 (stereo not given) | inconclusive: 34.9% |
| COC(=O)c1ccc(CNC(=O)c2ccc3c(c2)NC(=O)CS3)cc1 | inconclusive: 30.8% |
| CSc1nsc(NN)n1 | inactive: -1.9% |
| CCOc1ccc(NC(=O)CCNC(=O)Cn2ccc3ccccc3c2=O)cc1 | inconclusive: 42.7% |
| CCN(CC)CCNc1nc(SC)nc2sc3c(c12)CCN(C)C3 | inactive: -2.27% |
| Cc1ccc(C)c(OCc2cc(C(=O)N3CCN(C4CCCCC4)CC3)no2)c1 | inconclusive: 34.5% |
